Laboratory results from PubChem BioAssay AID248 (DTP/NCI, 2004).
The list is a part of this screen's results and no random one: it is rich in T/C values a quarter to a half above the control, in often repeated tests (any T/C) and in doses without a T/C. Other doses and runs of a compound stand elsewhere. T/C: endpoint of the treated group in % of that of the vehicle group. Some doses have a count of surviving animals in place of a T/C: the source holds a T/C of zero for them, seemingly a mark for toxic or unscored doses. Some doses without a T/C left all or most animals alive at the check, yet need not have been tolerated: survival well below the control is almost never listed, so the zero probably covers shortened survival too. Survivors were counted at the toxicity check, usually on the fifth day, unless a day is given; later deaths do not show. Schedules are NCI's codes, read here as Q, the interval in days (D) or hours (H), X, the number of doses. Some schedules carry Z or #; the key to these is not given. Where survival is the endpoint, this PubChem deposit counts one and a half times the control or more as active, and values a quarter to a half above the control carry no call in these data; other NCI protocols may use other cut-offs. Counts like (3×) count equal records among those shown. Some entries hold several experiments; the values are given in rising order. Some T/C values are followed by the survivors on the day toxicity was checked, most often the fifth; where none is given, no animal had died by that day.

System: L1210 leukemia ip in BDF1 mice, survival T/C
Assay: NCI In Vivo Anticancer Drug Screen. Data for tumor model L1210 Leukemia (intraperitoneal) in B6D2F1 (BDF1) mice
Settings: T/C endpoint: mean survival time, higher T/C = longer survival
[1] = dose: 175.0 mg/kg/injection, schedule: Q01DX Z (ip), vehicle: methylcellulose (MC)
[2] = dose: 400.0 mg/kg/injection, schedule: Q01DX009 (ip), vehicle: saline with Tween-80
[3] = dose: 400.0 mg/kg/injection, schedule: Q04DX002 (ip), vehicle: Klucel (hydroxypropylcellulose) (HPC)
[4] = dose: 200.0 mg/kg/injection, schedule: Q01DX009 (ip), vehicle: saline with Tween-80

## C[C@H](CCC(=O)O)[C@H]1CC[C@H]2[C@@H]3[C@H](O)C[C@@H]4C[C@H](O)CC[C@]4(C)[C@H]3C[C@H](O)[C@]12C (tested in a mixture with another compound)
dose: 80.0 mg/kg/injection, schedule: Q01DX Z (ip), vehicle: methylcellulose (MC)
  T/C: 126 % of control
dose: 120.0 mg/kg/injection, schedule: Q01DX009 (ip), vehicle: saline
  T/C: 125 % of control
dose: 120.0 mg/kg/injection, schedule: Q01DX Z (ip), vehicle: methylcellulose (MC)
  T/C: 126 % of control
[1]
  T/C: 129 and 132 % of control
  survivor count: 2 of 6
dose: 180.0 mg/kg/injection, schedule: Q01DX009 (ip), vehicle: saline
  T/C: 137 % of control [4 of 6 alive]
dose: 263.0 mg/kg/injection, schedule: Q01DX Z (ip), vehicle: methylcellulose (MC)
  survivor count: 1 of 6
dose: 270.0 mg/kg/injection, schedule: Q01DX009 (ip), vehicle: other
  survivor count: 1 of 6
dose: 270.0 mg/kg/injection, schedule: Q01DX009 (ip), vehicle: saline
  survivor count: 1 of 6
dose: 270.0 mg/kg/injection, schedule: Q01DX Z (ip), vehicle: methylcellulose (MC)
  survivor count: 6 of 6
dose: 300.0 mg/kg/injection, schedule: Q01DX009 (ip), vehicle: saline
  survivor count: 2 of 6
dose: 300.0 mg/kg/injection, schedule: Q04DX003 (ip), vehicle: other
  T/C: 145 % of control
dose: 400.0 mg/kg/injection, schedule: Q01DX001 (ip), vehicle: alcohol
  survivor count: 3 of 6

## CC(=O)Nc1ccc([I+]c2ccc([N+](=O)[O-])cc2)cc1
[2]
  survivor count: 0 of 6

## ON=C1CSSC1
dose: 25.0 mg/kg/injection, schedule: Q04DX003 (ip), vehicle: saline with Tween-80
  survivor count: 0 of 6
dose: 50.0 mg/kg/injection, schedule: Q04DX003 (ip), vehicle: saline with Tween-80
  survivor count: 0 of 6

## CCCC(=O)N(C(=O)CCC)c1cc2c3c(c1)CCCN3CCC2
dose: 100.0 mg/kg/injection, schedule: Q01DX009 (ip), vehicle: Klucel (hydroxypropylcellulose) (HPC)
  survivor count: 6 of 6
dose: 200.0 mg/kg/injection, schedule: Q04DX003 (ip), vehicle: saline
  survivor count: 6 of 6
dose: 400.0 mg/kg/injection, schedule: Q04DX003 (ip), vehicle: saline
  survivor count: 3 of 6

## Cc1ccc(CNC2=C(Cl)C(=O)c3ccccc3C2=O)cc1C
dose: 50.0 mg/kg/injection, schedule: Q04DX002 (ip), vehicle: Klucel (hydroxypropylcellulose) (HPC)
  survivor count: 0 of 3
dose: 100.0 mg/kg/injection, schedule: Q04DX002 (ip), vehicle: Klucel (hydroxypropylcellulose) (HPC)
  survivor count: 0 of 3
dose: 200.0 mg/kg/injection, schedule: Q04DX002 (ip), vehicle: Klucel (hydroxypropylcellulose) (HPC)
  survivor count: 0 of 3
[3]
  survivor count: 0 of 3

## NC(=O)c1cc(N2CC2)c([N+](=O)[O-])cc1[N+](=O)[O-]
dose: 80.0 mg/kg/injection, schedule: Q01DX009 (ip), vehicle: saline
  survivor count: 4 of 6

## CCCCNc1cc(Nc2ccc(Br)cc2)nc(N)n1
dose: 400.0 mg/kg/injection, schedule: Q01DX001 (ip), vehicle: saline
  survivor count: 1 of 4

## CC(C)CC(NC(=O)C(F)(F)F)C(=O)O (stereo not given)
dose: 400.0 mg/kg/injection, schedule: Q04DX003 (ip), vehicle: saline with Tween-80
  survivor count: 4 of 6

## Cc1ccc(Cl)cc1NC(=O)Nc1cccc(C(F)(F)F)c1
dose: 100.0 mg/kg/injection, schedule: Q01DX009 (ip), vehicle: saline with Tween-80
  T/C: 91, 93, 94, 97 % of control
[4]
  T/C: 92 % of control (2×)
  survivor count: 3 of 3

## Cc1ccc([As](=O)(O)O)cc1F
dose: 6.25 mg/kg/injection, schedule: Q01DX009 (ip), vehicle: Klucel (hydroxypropylcellulose) (HPC)
  survivor count: 1 of 3
dose: 12.5 mg/kg/injection, schedule: Q01DX009 (ip), vehicle: Klucel (hydroxypropylcellulose) (HPC)
  survivor count: 1 of 3
dose: 25.0 mg/kg/injection, schedule: Q01DX009 (ip), vehicle: Klucel (hydroxypropylcellulose) (HPC)
  survivor count: 0 of 3

## CNCC(O)c1cccc(O)c1 (stereo not given)
dose: 50.0 mg/kg/injection, schedule: Q04DX003 (ip), vehicle: saline
  survivor count: 1 of 4

## COCCCNC(=S)C(=S)NCCCOC
[3]
  survivor count: 1 of 3

## COc1ccc(C)cc1NC(=O)Oc1ccc2c(C)cc(=O)oc2c1
[2]
  survivor count: 4 of 6
